Experimental data published in the supplement of paper PMC12067093, “Discovery and optimisation of a covalent ligand for TRIM25 and its application to targeted protein ubiquitination” (Chemical Science, 2025).
Some of the results follow.

By UniProt entry, the sequences of proteins in these tests, tags left out. Where a name states a change or a piece, a line headed by the entry shows the natural chain unless it says otherwise.
UniProt P13196: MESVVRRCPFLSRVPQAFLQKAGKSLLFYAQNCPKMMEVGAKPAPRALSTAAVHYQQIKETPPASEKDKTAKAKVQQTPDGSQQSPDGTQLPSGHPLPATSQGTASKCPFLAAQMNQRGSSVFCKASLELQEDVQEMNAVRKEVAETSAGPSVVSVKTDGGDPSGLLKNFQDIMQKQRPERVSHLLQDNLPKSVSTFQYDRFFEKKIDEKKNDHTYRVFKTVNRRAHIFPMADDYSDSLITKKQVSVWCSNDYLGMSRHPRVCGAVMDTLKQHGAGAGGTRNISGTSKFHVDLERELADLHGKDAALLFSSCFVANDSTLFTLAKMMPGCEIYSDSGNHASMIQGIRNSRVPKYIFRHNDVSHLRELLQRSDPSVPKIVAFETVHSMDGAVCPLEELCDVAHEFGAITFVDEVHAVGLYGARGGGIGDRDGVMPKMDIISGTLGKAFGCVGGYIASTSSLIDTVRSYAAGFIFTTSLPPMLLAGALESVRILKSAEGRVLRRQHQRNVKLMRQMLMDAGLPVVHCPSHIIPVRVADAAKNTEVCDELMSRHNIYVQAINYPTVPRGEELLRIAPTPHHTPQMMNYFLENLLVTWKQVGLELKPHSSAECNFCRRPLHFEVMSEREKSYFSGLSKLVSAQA
UniProt Q02040: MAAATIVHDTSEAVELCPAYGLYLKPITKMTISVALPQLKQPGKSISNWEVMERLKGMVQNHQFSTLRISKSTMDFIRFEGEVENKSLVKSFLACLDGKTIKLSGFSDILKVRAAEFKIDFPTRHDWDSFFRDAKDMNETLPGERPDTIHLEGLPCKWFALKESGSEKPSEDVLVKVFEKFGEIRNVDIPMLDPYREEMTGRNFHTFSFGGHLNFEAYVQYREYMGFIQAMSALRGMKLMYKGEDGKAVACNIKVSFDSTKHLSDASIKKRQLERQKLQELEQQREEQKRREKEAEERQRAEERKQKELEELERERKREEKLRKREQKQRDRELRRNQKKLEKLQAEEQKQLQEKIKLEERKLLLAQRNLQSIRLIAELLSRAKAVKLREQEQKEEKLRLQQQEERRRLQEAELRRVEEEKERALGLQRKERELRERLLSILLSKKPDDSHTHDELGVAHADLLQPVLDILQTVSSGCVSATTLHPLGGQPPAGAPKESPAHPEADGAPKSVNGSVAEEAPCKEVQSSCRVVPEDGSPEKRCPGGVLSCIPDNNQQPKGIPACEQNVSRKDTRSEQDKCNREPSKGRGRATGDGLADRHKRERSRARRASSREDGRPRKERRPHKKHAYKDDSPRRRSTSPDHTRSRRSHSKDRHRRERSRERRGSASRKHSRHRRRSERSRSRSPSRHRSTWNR
UniProt Q12904: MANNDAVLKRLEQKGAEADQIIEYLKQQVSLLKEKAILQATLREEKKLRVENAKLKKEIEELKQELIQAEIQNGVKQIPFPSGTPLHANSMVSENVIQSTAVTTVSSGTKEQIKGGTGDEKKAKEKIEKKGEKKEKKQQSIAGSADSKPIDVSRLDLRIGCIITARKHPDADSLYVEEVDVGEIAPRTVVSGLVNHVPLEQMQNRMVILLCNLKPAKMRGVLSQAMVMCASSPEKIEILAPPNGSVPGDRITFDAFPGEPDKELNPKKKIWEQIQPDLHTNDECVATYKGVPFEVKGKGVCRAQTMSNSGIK
UniProt Q92667: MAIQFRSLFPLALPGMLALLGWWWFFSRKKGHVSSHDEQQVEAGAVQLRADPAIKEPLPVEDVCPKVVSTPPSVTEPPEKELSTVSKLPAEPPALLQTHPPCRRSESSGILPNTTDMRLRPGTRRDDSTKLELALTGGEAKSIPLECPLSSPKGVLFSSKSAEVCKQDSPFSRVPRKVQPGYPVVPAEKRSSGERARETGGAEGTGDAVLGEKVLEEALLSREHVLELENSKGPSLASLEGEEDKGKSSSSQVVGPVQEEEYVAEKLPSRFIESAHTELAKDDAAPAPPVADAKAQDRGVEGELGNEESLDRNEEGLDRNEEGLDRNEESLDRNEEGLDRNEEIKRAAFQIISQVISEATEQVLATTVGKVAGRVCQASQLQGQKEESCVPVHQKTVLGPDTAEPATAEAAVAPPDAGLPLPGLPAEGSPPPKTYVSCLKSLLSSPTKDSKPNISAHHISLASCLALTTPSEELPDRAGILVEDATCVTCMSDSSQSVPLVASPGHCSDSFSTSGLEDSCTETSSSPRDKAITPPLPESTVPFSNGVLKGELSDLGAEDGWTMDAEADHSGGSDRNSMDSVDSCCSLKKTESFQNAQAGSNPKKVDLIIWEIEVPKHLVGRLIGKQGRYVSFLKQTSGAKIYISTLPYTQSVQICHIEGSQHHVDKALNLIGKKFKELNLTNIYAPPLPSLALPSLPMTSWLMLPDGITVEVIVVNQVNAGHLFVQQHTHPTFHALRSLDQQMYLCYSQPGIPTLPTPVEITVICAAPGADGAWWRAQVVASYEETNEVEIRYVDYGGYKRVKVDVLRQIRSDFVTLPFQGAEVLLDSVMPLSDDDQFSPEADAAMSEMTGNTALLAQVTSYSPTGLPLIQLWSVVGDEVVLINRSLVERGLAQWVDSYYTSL
UniProt Q13740: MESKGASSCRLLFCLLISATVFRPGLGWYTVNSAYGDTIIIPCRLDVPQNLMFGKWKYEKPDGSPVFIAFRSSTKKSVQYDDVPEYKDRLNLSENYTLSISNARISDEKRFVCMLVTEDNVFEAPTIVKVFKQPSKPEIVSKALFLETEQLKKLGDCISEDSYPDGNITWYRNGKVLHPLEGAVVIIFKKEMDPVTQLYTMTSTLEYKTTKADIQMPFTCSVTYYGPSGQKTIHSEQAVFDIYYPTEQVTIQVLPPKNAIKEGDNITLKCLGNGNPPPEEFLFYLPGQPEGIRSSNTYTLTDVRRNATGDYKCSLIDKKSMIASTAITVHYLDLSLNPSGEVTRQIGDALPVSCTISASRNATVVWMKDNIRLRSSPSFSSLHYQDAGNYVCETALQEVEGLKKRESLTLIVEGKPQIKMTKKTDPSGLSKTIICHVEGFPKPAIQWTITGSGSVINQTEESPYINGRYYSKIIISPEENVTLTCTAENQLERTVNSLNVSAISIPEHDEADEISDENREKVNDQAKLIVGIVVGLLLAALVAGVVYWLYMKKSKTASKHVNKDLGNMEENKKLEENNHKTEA
UniProt P13716: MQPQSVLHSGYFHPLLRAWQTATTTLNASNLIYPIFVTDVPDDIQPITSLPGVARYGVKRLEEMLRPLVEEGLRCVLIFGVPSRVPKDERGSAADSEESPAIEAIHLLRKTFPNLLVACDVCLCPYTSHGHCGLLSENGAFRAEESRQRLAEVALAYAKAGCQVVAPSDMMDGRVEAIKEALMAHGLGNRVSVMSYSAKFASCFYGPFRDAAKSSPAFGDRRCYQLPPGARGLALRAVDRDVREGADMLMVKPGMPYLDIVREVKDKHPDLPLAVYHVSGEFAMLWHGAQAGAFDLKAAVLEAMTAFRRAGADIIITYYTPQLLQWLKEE
UniProt O95433, whole entry, looked up: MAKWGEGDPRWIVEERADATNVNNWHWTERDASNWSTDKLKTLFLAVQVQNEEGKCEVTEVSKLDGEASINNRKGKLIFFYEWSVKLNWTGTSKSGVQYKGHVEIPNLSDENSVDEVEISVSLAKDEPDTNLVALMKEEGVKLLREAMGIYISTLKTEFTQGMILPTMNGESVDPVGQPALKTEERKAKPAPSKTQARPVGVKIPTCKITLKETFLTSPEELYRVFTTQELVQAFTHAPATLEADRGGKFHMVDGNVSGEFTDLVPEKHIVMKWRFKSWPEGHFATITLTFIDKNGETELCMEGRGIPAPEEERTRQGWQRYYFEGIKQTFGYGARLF
UniProt P04075: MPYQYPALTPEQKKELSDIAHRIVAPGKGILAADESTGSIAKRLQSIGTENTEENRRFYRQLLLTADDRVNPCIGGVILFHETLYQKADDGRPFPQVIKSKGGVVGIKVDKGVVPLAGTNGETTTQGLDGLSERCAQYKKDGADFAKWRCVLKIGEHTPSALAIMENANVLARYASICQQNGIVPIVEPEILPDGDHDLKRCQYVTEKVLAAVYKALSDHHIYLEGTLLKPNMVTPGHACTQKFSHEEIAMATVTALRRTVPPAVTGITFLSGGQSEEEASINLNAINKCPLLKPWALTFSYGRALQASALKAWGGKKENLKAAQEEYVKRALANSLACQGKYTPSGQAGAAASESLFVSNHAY
UniProt Q9BT22: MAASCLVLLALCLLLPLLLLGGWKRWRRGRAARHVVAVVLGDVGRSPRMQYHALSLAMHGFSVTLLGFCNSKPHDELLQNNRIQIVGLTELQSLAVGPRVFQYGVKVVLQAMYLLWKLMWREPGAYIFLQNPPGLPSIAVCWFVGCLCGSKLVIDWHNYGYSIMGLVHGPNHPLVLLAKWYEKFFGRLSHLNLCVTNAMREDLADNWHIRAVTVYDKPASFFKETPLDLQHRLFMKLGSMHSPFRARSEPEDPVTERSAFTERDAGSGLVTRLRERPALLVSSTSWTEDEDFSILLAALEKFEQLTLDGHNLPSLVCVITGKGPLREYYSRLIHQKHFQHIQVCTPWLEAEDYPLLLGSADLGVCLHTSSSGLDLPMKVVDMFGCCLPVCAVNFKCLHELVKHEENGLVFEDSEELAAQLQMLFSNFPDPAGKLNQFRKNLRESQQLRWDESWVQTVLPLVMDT
UniProt O00116: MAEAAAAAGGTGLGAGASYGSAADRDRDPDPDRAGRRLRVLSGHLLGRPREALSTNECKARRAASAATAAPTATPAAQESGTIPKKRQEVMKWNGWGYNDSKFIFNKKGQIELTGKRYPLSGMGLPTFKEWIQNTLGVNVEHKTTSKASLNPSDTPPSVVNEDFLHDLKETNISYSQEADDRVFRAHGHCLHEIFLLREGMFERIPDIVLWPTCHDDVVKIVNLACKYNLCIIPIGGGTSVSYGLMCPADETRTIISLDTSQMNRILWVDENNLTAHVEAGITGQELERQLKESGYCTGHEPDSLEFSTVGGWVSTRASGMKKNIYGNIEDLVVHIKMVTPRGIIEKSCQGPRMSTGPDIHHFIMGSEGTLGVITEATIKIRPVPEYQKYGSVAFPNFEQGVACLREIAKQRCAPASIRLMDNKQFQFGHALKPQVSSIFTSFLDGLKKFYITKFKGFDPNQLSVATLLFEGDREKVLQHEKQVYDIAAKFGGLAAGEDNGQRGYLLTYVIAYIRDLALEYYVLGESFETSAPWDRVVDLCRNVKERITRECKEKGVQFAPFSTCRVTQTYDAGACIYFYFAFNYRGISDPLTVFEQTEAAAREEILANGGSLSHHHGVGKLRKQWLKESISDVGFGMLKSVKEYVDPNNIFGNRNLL
UniProt Q9NYG5, whole entry, looked up: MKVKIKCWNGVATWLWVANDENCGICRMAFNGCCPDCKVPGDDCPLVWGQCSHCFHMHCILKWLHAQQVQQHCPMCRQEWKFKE
UniProt O00170: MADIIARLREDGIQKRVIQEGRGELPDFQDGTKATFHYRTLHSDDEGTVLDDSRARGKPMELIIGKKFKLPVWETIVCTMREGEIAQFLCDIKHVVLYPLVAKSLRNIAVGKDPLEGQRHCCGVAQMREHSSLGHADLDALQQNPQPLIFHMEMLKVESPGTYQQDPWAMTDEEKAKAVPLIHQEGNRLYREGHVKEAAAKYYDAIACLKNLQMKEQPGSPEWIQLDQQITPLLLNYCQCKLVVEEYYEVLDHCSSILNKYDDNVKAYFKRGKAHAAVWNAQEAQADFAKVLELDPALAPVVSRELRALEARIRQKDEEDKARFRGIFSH
UniProt Q9Y3D8, whole entry, looked up: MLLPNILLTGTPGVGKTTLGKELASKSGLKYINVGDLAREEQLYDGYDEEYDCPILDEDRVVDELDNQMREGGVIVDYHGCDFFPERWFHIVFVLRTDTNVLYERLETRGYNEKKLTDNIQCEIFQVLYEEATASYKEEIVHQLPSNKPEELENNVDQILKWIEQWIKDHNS
UniProt P09917: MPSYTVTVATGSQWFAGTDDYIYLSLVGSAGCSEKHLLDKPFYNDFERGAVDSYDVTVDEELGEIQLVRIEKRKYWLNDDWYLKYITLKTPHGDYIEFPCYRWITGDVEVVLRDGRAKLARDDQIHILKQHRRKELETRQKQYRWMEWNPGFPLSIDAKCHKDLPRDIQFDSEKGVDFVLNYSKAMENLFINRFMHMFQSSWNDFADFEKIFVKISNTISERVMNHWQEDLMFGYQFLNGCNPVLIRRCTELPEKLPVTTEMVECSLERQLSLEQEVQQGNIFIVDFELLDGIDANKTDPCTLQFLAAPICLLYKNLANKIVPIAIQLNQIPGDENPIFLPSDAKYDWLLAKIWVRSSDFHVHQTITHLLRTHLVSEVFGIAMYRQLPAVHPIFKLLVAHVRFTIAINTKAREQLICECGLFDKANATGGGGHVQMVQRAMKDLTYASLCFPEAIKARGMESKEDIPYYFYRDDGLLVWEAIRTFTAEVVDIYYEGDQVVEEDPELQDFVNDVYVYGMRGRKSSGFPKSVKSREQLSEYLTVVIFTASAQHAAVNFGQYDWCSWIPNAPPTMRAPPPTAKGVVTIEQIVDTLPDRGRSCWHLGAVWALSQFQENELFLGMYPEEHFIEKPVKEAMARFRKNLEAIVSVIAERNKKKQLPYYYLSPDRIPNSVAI

Compound: CC1Cc2ccccc2N1C(=O)C1CCCN(C1)C(=O)CCl (mixture of isomers) [TRIM25 ligand 11 (diastereomer mixture)]
Test: probe-labelled cysteine peptide fold change vs DMSO (competition) (log2 fold change); higher = less target engagement (more negative = stronger competition)
Settings: THP-1, incubation time: 4 h
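Further: competitive chemoproteomic profiling in live THP-1 cells with an iodoacetamide desthiobiotin (IA-DTB) probe, comparing probe-labelled peptide intensities in compound-treated cells against DMSO-treated controls.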

Target | probe-labelled cysteine peptide fold change (10 µM) | probe-labelled cysteine peptide fold change (50 µM)
ALAS1_P13196_124_GSSVFCK (UniProt P13196) | 0.142 | 0.31
AKAP17A_Q02040_95_SFLACLDGK (UniProt Q02040) | -0.0826 | 0.0538
AMPD2_Q01433_263_YMALSLQSFCPTTR (UniProt Q01433) | -0.0514 | 0.0728
ALDH2_P05091_66_KTFPTVNPSTGEVICQVAEGDKEDVDK (UniProt P05091) | -0.122 | -0.271
AIMP1_Q12904_211_MVILLCNLKPAK (UniProt Q12904) | -0.363 | -0.36
AKR1B1_P15121_299_VCALLSCTSHK (UniProt P15121) | 0.129 | -0.0125
AKAP1_Q92667_147_SIPLECPLSSPK (UniProt Q92667) | -0.0299 | -0.202
ALCAM_Q13740_270_CLGNGNPPPEEFLFYLPGQPEGIR (UniProt Q13740) | 0.189 | 0.0105
ALAS1_P13196_8_RCPFLSR (UniProt P13196) | -0.0974 | 0.525
AKAP17A_Q02040_522_SVNGSVAEEAPCK (UniProt Q02040) | -0.157 | -0.189
ALAD_P13716_75_CVLIFGVPSR (UniProt P13716) | 0.00691 | 0.122
ALKBH8_Q96BT7_296_YLWTHGITCR (UniProt Q96BT7) | 0.0454 | -0.000544
ANAPC1_Q9H1A4_1630_LLVPVDVDTNTPCYALLEVTYK (UniProt Q9H1A4) | -0.0593 | -0.0545
AHSA1_O95433_56_CEVTEVSK (UniProt O95433) | 0.103 | 0.165
ALDOA_P04075_339_ALANSLACQGK (UniProt P04075) | -0.0633 | -0.155
AIMP1_Q12904_284_IWEQIQPDLHTNDECVATYK (UniProt Q12904) | 0.0398 | -0.218
AKAP8L_Q9ULX6_128_YDSYESCDSR (UniProt Q9ULX6) | 0.0406 | -0.0423
ALG1_Q9BT22_317_FEQLTLDGHNLPSLVCVITGK (UniProt Q9BT22) | 0.109 | 0.159
AHNAK_Q09666_1833_GPFVEAEVPDVDLECPDAK (UniProt Q09666) | -0.0421 | -0.135
AKAP9_Q99996_1954_TDIIDRLEQELLCASNR (UniProt Q99996) | 0.0046 | -0.0214
ALDOA_P04075_240_PNMVTPGHACTQK (UniProt P04075) | 0.139 | 0.117

Target | probe-labelled cysteine peptide fold change (10 µM) | probe-labelled cysteine peptide fold change (50 µM)
AKAP9_Q99996_1782_SCVHEEHTR (UniProt Q99996) | -0.0829 | -0.142
AGPS_O00116_247_YNLCIIPIGGGTSVSYGLMCPADETR (UniProt O00116) | -0.152 | -0.023
ANAPC11_Q9NYG5_73+76_WLHAQQVQQHCPMCR (UniProt Q9NYG5) | -0.13 | -0.211
AIP_O00170_122_HCCGVAQMR (UniProt O00170) | -0.0346 | -0.238
AKAP9_Q99996_836_QQCIQLNEEIEK (UniProt Q99996) | -0.0448 | 0.113
ANKFY1_Q9P2R3_1060_GNANLCR (UniProt Q9P2R3) | -0.1 | 0.0369
ALDH4A1_P30038_315_LAGECGGK (UniProt P30038) | -0.132 | 0.0892
AK6_Q9Y3D8_81_EGGVIVDYHGCDFFPER (UniProt Q9Y3D8) | 0.0956 | 0.161
ALOX5_P09917_249_CTELPEK (UniProt P09917) | 0.00802 | 0.134
ALDH3A2_P51648_226_DCDLDIVCR (UniProt P51648) | -0.0107 | 0.045
ANAPC4_Q9UJX5_732_KVSCVLSSNLR (UniProt Q9UJX5) | -0.0409 | 0.0694
ALOX5_P09917_450_DLTYASLCFPEAIK (UniProt P09917) | -0.0165 | -0.0147
AIP_O00170_90_EGEIAQFLCDIK (UniProt O00170) | -0.0698 | 0.00981
ALAD_P13716_162_AGCQVVAPSDMMDGRVEAIK (UniProt P13716) | -0.259 | -0.214
AMBRA1_Q9C0C7_1036_GDLVICRPEALNSGVEYYWDQLNETVFTVHSNSR (UniProt Q9C0C7) | -0.0165 | -0.106
ALDH16A1_Q8IZ83_467_DPSVPTGGCK (UniProt Q8IZ83) | 0.0518 | -0.0262
AMACR_Q9UHK6_284+293_AEWCQIFDGTDACVTPVLTFEEVVHHDHNK (UniProt Q9UHK6) | 0.0202 | 0.0575
ALKBH1_Q13686_371_DISTEGFCHLDDQNSEVKR (UniProt Q13686) | 0.197 | -0.192
AGPS_O00116_297_ESGYCTGHEPDSLEFSTVGGWVSTR (UniProt O00116) | -0.0317 | -0.192
AHNAK_Q09666_5502_SSGCDVNLPGVNVK (UniProt Q09666) | -0.108 | -0.216
ALDH9A1_P49189_355_VLCGGDIYVPEDPK (UniProt P49189) | -0.168 | 0.0484
